Test results: patent publication US20220313651A1, “INHIBITORS OF ZIKA VIRUS INFECTION” (priority 2019, published 2022)
At least one compound was matched to its structure with a doubt left.

Columns and labels:
[1] = test system: ZIKV human strain R103451; test: Protection of Ifnar1-/- mice from lethal ZIKV challenge (survival, weight); format: in vivo; details: 20 mg/kg i.p. 12 h before and 6, 24, 48 h after infection; ZIKV R103451 200 PFU/mouse; 21 days
Description: (§1) FIG. 8A is a schematic diagram of experimental procedures. […] The treated mice were infected with ZIKV human strain R103451 (200 plaque forming unit (PFU)/mouse), followed by evaluation of survival rate (FIG. 8B) or weight changes (FIG. 8C) for 21 days. The data are expressed as mean±s.e.m. of mice in each group (n=6). In a separate experiment, ST087010 or gossypol-treated mice were infected with ZIKV human strain PAN2016 (200, PFU/mouse). Five days post-infection (dpi), viral titers were detected in tissues by plaque assay (FIG. 8D), and ZIKV or caspase-3 signals were measured in eye (FIG. 8E) and testis ([…]) tissues by immunofluorescence staining. The data are expressed as mean±s.e.m. of mice in each group (n=5), and significant differences among different groups are shown as *, **, and ***. The detection limit is 25 PFU/g. ZIKV and caspase-3 (in FIG. 8E-F) were stained with anti-ZIKV and anti-active caspase-3 antibodies, respectively. Nuclei were stained with DAPI (40,6-diamidino-2-phenylindole). Representative images of immunofluorescence staining are shown. Magnification, 63×, and scale bar, 10 μm.
Adult male (3-4 or 7-8-week-old) and pregnant female (8-12-week-old, E12-14) Ifnar1^−/− mice were used in the study. […]
(§2) ST087010 was evaluated for protection against ZIKV infection in ZIKV-susceptible Ifnar1^−/− mice. […]

[2] = test system: ZIKV human strain PAN2016; test: ZIKV PAN2016 infection of Ifnar1-/- mice: tissue viral titers, immunofluorescence; format: in vivo; details: 20 mg/kg i.p.; ZIKV PAN2016 200 PFU/mouse; 5 dpi; heart, testis, eye, kidney, brain
Description: as §1, with “ZIKV and caspase-3 (in FIG. 8E-F) were stained with anti-ZIKV and anti-active caspase-3 antibodies, respectively. Nuclei were stained with DAPI (40,6-diamidino-2-phenylindole). Representative images of immunofluorescence staining are shown. Magnification, 63×, and scale bar, 10 μm.” left out
as §2
Plaque assay was used to detect viral titers in ZIKV-infected tissues. […] ZIKV titers in tissues were measured from ˜40 mg of samples, and thus the detection limit is about 25 PFU/g of tissues.
Immunofluorescence staining was carried out to detect ZIKV and caspase-3 signals in ZIKV-infected mouse tissues. […] The slides were analyzed using a confocal microscope (Zeiss LSM 880) and ZEN software, and fluorescent signals were quantified by ImageJ software. […]

ZIKV (PAN2016) = test: Time-of-addition experiment, ZIKV PAN2016 in Vero E6 cells; format: cell-based, Zika virus (ZIKV); details: gossypol 15 μM, curcumin 30 μM, digitonin 7.5 μM, conessine 30 μM, ST087010 15 μM
Experimental: FIG. 2A-K depicts a time-of-addition experiment to test the ability of the disclosed compounds to block ZIKV infection at different steps of the viral life cycle. […] FIG. 2B: Pretreatment of cells: cells were pre-incubated with one of the compounds at 37° C. for 1 h, and the unbound compounds were then removed, followed by addition of ZIKV and incubation of cells at 37° C. for 1 h. After removal of the unbound ZIKV, the cells were cultured and plaques and inhibition rate determined as in FIG. 2A. FIG. 2C: Blockage of ZIKV attachment: cells were incubated with ZIKV at 4° C. for 1 h (to allow ZIKV attachment but not fusion between ZIKV and cell membranes) in the presence of one of the compounds. After removal of the unbound ZIKV and compounds, the cells were cultured and plaques and inhibition rate determined. […] FIG. 2E: Blockage of ZIKV penetration (membrane fusion): cells were incubated with ZIKV at 4° C. for 1 h to allow ZIKV attachment. After removal of the unbound ZIKV, the cells were incubated with one of the compounds at 37° C. for 1 h to allow fusion of virus-cell membranes. After further removal of the unbound compounds, the cells were cultured and plaques and inhibition rate determined. FIG. 2F: Inhibition of post-entry stage: cells were incubated with ZIKV at 37° C. for 1 h (to allow ZIKV entry into the target cells). […] The percent inhibition was calculated based on the numbers of plaques in the presence or absence of serially diluted compounds. The data are expressed as mean±s.e.m. (n=2). The experiments were repeated three times with similar results.
Time-of-addition experiments were performed in Vero E6 cells, and six specific steps are shown as follows. 1) Step 1: Pretreatment of virus. […] After removal of the unbound compounds, ZIKV was incubated with cells at 37° C. for 1 h, followed by culturing cells at 37° C. for 4-5 days, and enumerating plaques. 2) Step 2: Pretreatment of cells. […] The unbound ZIKV was removed, and the cells were cultured and plaques enumerated as in Step 1. 3) Step 3: Attachment. […] After removal of the unbound ZIKV and compounds, the cells were cultured and plaques enumerated as in Step 1. 4) Step 4: Co-treatment. […] After removal of the unbound viruses and compounds, the cells were cultured and plaques enumerated as in Step 1. 5) Step 5: Fusion. Cells were incubated with ZIKV at 4° C. for 1 h for ZIKV attachment. […] The unbound compounds were removed, and the cells were cultured and plaques enumerated as in Step 1. 6) Step 6: Post-entry. Cells were incubated with ZIKV at 37° C. for 1 h for ZIKV entry. […] The unbound compounds were then removed, and the cells were cultured and enumerated for plaques as in Step 1. The data are expressed as mean % inhibition±s.e.m. (n=2). The percent inhibition was calculated based on the numbers of plaques in the presence or absence of the compounds. The experiments were repeated three times with similar results.
Time-of-addition experiments. were performed to identify mechanisms of the Z-medicaments against ZIKV infection. […]

## Cc1cc2c(C(C)C)c(O)c(O)c(C=O)c2c(O)c1-c1c(C)cc2c(C(C)C)c(O)c(O)c(C=O)c2c1O [Gossypol, gossypol]
[1]
  Survival (mice protected from death): no mice treated with gossypol survived past 6 dpi
  Weight changes: increased weight loss
[2]
  Viral titers in tissues (plaque assay): significantly higher viral titers in heart, kidney and brain than DMSO-treated mice
ZIKV (PAN2016); cells incubated with compound 37° C. 1 h before ZIKV
  Inhibition of ZIKV infection, pretreatment of cells: maintained its infectivity
ZIKV (PAN2016); cells with ZIKV at 37° C. 1 h, then compound 37° C. 1 h
  Inhibition of ZIKV infection, post-entry stage: maintained its infectivity
ZIKV (PAN2016); co-treatment of cells, ZIKV and compound at 4° C. 1 h
  Inhibition of ZIKV infection, attachment: maintained its infectivity
ZIKV (PAN2016); co-treatment of cells, ZIKV and compound at 37° C. 1 h
  Inhibition of ZIKV infection, co-treatment of ZIKV and cells: maintained its infectivity
ZIKV (PAN2016); virus incubated with compound 37° C. 1 h before cells
  Inhibition of ZIKV infection, pretreatment of ZIKV: completely lost its infectivity
